Assay results from the supplement of paper PMC11732987, “Enantioselective OTUD7B fragment discovery through chemoproteomics screening and high-throughput optimisation” (Communications Chemistry, 2025).
The other results are listed elsewhere or left out. The data scatter; read single values as rough.

Experiments:
[1] = compound: ClCC(=O)N[C@@H]1CCCc2ccccc12; test: log2 mean competition ratio of IA-DTB cysteine labelling (DMSO/compound) (log2 ratio); higher = stronger cysteine engagement by compound; settings: treatment time: 4 h, cell line lysate: HEK293T
Description: (§1)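 IA-DTB competitive cysteine chemoproteomics in HEK293T RIPA lysate. Lysates were treated with compound 29 or 30 at 50 or 200 µM for 4 h, then IA-DTB (500 µM, 1 h), trypsin-digested, NeutrAvidin-enriched and analysed by diaPASEF. Competition ratio = intensity DMSO / intensity compound (n=4 treated, n=64 DMSO); binding: mean log2 CR ≥ 1 and p ≤ 0.05 plus QC filters. Target is the cysteine site.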

[2] = compound: ClCC(=O)N[C@H]1CCCc2ccccc12; test: as above; settings: treatment time: 4 h, cell line lysate: HEK293T
Description: as §1

| Target | log2 mean competition ratio ([1]; 50 µM) | log2 mean competition ratio ([1]; 200 µM) | log2 mean competition ratio ([2]; 50 µM) | log2 mean competition ratio ([2]; 200 µM) |
| --- | --- | --- | --- | --- |
| KIF18B C782 (UniProt Q86Y91) | 0.215 | -0.127 | 0.165 | 0.0154 |
| KIAA1671 C842 | -0.122 | -0.277 | 0.131 | -0.349 |
| ITPR3 C1511 (UniProt Q14573) | 0.0654 | 0.282 | -0.394 | 0.296 |
| KIF4A C190 (UniProt O95239) | -0.111 | 0.406 | -0.251 | 0.2 |
| KIF2A C309 (UniProt O00139) | 0.404 | 0.095 | 0.639 | 0.102 |
| KAT2A C695 (UniProt Q92830) | -0.106 | -0.215 | 0.566 | -0.0296 |
| IRS4 C381 | 0.284 | 0.144 | 0.509 | 0.00325 |
| KANSL3 C161 (UniProt Q9P2N6) | -0.00826 | -0.0668 | 0.117 | -0.0925 |
| KEAP1 C288 (UniProt Q14145) | -0.0331 | 0.313 | -0.132 | 0.376 |
| KIAA0232 C703 | -0.153 | -0.105 | -0.404 | -0.0707 |
| IST1 C125 (UniProt P53990) | -0.00041 | -0.203 | 0.644 | 0.06 |
| JRKL C102 | 0.126 | 0.0578 | 0.0103 | 0.0983 |
| KIDINS220 C747 (UniProt Q9ULH0) | 0.306 | 0.0313 | 0.837 | 0.224 |
| KIF2C C455 (UniProt Q99661) | 0.159 | 0.203 | 0.213 | 0.307 |
| KAT8 C230 (UniProt Q9H7Z6) | 0.0664 | 0.409 | 0.0424 | 0.364 |
| KIF4A C895 (UniProt O95239) | 0.0481 | 0.0224 | -0.171 | 0.0111 |
| KDSR C245 (UniProt Q06136) | -0.0528 | -0.0792 | -0.192 | -0.239 |
